Laboratory results taken from PMC11574751 (ACS Chemical Biology, 2024).
These are yes or no findings as the source states them, for the method shown. Some results given as binding are weak or reduced against the parent protein; the word gives no strength.

Biological target: T1, ABCG2 (breast cancer resistance protein) (human), Q9UNQ0
T1 chain: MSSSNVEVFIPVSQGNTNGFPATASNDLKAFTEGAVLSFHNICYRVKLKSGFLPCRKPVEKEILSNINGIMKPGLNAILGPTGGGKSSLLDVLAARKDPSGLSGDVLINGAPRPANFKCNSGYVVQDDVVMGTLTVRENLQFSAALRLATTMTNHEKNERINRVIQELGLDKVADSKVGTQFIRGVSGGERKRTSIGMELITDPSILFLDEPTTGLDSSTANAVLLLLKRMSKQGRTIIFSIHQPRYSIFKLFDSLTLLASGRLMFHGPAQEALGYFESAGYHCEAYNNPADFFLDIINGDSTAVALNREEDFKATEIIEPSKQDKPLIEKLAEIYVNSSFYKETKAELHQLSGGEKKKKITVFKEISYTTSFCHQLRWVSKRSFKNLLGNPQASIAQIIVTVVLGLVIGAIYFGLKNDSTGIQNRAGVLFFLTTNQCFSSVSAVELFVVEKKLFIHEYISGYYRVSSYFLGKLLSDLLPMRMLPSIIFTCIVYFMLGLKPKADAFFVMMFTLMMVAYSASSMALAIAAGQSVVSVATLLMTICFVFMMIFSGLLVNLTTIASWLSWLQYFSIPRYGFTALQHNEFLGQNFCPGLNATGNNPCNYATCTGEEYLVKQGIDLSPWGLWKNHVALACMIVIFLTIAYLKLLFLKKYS
Assay: cryo-EM structure; nanodisc-reconstituted ABCG2 with 5D3-Fab added and two copies of an inhibitor bound (Ko143, MZ29, MZ82 or AZ99); inward-open conformation; the MZ29 structure is from a reprocessed, previously published data set; both purified
Conditions: remark: other sources report otherwise

B1: ABCG2 (breast cancer resistance protein), Q9UNQ0 1-655 (protein)
chain: MSSSNVEVFIPVSQGNTNGFPATASNDLKAFTEGAVLSFHNICYRVKLKSGFLPCRKPVEKEILSNINGIMKPGLNAILGPTGGGKSSLLDVLAARKDPSGLSGDVLINGAPRPANFKCNSGYVVQDDVVMGTLTVRENLQFSAALRLATTMTNHEKNERINRVIQELGLDKVADSKVGTQFIRGVSGGERKRTSIGMELITDPSILFLDEPTTGLDSSTANAVLLLLKRMSKQGRTIIFSIHQPRYSIFKLFDSLTLLASGRLMFHGPAQEALGYFESAGYHCEAYNNPADFFLDIINGDSTAVALNREEDFKATEIIEPSKQDKPLIEKLAEIYVNSSFYKETKAELHQLSGGEKKKKITVFKEISYTTSFCHQLRWVSKRSFKNLLGNPQASIAQIIVTVVLGLVIGAIYFGLKNDSTGIQNRAGVLFFLTTNQCFSSVSAVELFVVEKKLFIHEYISGYYRVSSYFLGKLLSDLLPMRMLPSIIFTCIVYFMLGLKPKADAFFVMMFTLMMVAYSASSMALAIAAGQSVVSVATLLMTICFVFMMIFSGLLVNLTTIASWLSWLQYFSIPRYGFTALQHNEFLGQNFCPGLNATGNNPCNYATCTGEEYLVKQGIDLSPWGLWKNHVALACMIVIFLTIAYLKLLFLKKYS
binding: binds
